From patent US20250066483A1
These are yes or no findings as the source states them, for the method shown. Binding can be weak; no strength is given.

What was measured:
[1] = target: bovine PD-L1 on bovine PD-L1 expressing cells (CHO-DG44, pEGFP-N2-boPD-L1) (bovine); test: flow cytometry on bovine PD-L1 expressing cells
[2] = target: bovine PD-L1 on bovine PD-L1 expressing cells (CHO-DG44, pEGFP-N2-boPD-L1) (bovine); test: flow cytometry on bovine PD-L1 expressing cells, detection with APC-labeled anti-rat Ig goat antibody
[3] = target: bovine PD-L1 on bovine PD-L1 expressing cells (CHO-DG44, pEGFP-N2-boPD-L1) (bovine); test: blocking assay by flow cytometry: bovine PD-L1 expressing cells pre-incubated with the antibody, then biotinylated bovine PD-1-Ig (2 µg/ml), detection with APC-streptavidin; blocked ligand: bovine PD-1-Ig
[4] = target: bovine PD-1 on bovine PD-1 expressing cells (CHO-DG44, pCMV-Tag1-boPD-1) (bovine); test: flow cytometry on bovine PD-1 expressing cells, 0.001 to 100 µg/ml, detection with Alexa Fluor 647-labeled anti-bovine IgG (H+L) goat F(ab')2
[5] = target: bovine PD-1 on bovine PD-1 expressing cells (CHO-DG44, pCMV-Tag1-boPD-1) (bovine); test: flow cytometry on bovine PD-1 expressing cells

B1: rat anti-bovine PD-L1 monoclonal antibody 4G12 (antibody, V domains shown)
VH: QVQLQQSGAELVKPGSSVKISCKASGYTFTSNFMHWVKQQPGNGLEWIGWIYPEYGNTKYNQKFDGKATLTADKSSSTAYMQLSSLTSEDSAVYFCASEEAVISLVYWGQGTLVTVSS
VL: DIAITQSPSSVAVSVGETVTLSCKSSQSLLYSENQKDYLGWYQQKPGQTPKPLIYWATNRHTGVPDRFTGSGSGTDFTLIISSVQAEDLADYYCGQYLVYPFTFGPGTKLELK
B1 was tested, and the binding [1] was “binds”, the binding [2] was “binds” and the binding [3] was “binds”.

B2: rat-bovine chimeric anti-bovine PD-1 antibody ch5D2 (mutated bovine IgG1, IgG1 ADCC-) (antibody)
heavy: QVQLKETGPGLVQPTQTLSITCTVSGFSLTSYYIQWVRQTPGKGLEWMGFIRSGGSTEYNSEFKSRLSINRDTSKNQVFLKMNSLKTEDTGVYYCARTSSGYEGGFDYWGQGVMVTVSSASTTAPKVYPLSSCCGDKSSSTVTLGCLVSSYMPEPVTVTWNSGALKSGVHTFPAVLQSSGLYSLSSMVTVPGSTSGQTFTCNVAHPASSTKVDKAVDPTCKPSPCDCCPPPPVAGPSVFIFPPKPKDTLTISGTPEVTCVVVDVGHDDPEVKFSWFVDDVEVNTATTKPREEQFNSTYRVVSALRIQHQDWTGGKEFKCKVHNEGLPSSIVRTISRTKGPAREPQVYVLAPPQEELSKSTVSLTCMVTSFYPDYIAVEWQRNGQPESEDKYGTTPPQLDADSSYFLYSKLRVDRNSWQEGDTYTCVVMHEALHNHYTQKSTSKSAGK
light: DVVLTQTPVSLSVTLGDQASISCRSSQSLEYSDGYTYLEWYLQKPGQSPQLLIYGVSNRFSGVPDRFIGSGSGTDFTLKISRVEPEDLGVYYCFQATHDPDTFGAGTKLELKQPKSPPSVTLFPPSTEELNGNKATLVCLISDFYPGSVTVVWKADGSTITRNVETTRASKQSNSKYAASSYLSLTSSDWKSKGSYSCEVTHEGSTVTKTVKPSECS
In the case of B2, the binding [4] is reported as “binds” and the binding [5] is reported as “binds”.
